Some of the results follow. Most values lie at the level of the controls, where differences are scatter.
These targets were tested with CC1(C)S[C@@H]2[C@H](NC(=O)[C@H](N)c3ccccc3)C(=O)N2[C@H]1C(=O)O [ampicillin] (assay: log2 fold change of tryptic peptide abundance, ligand vs vehicle (limited proteolysis) (log2 ratio); higher = more trypsin-susceptible (destabilized)). Settings: ligand concentration: 10 uM; sample: E. coli crude lysate.

By UniProt entry, the sequences of proteins in these tests, tags left out. Where a name states a change or a piece, a line headed by the entry shows the natural chain unless it says otherwise.
UniProt P0AD19: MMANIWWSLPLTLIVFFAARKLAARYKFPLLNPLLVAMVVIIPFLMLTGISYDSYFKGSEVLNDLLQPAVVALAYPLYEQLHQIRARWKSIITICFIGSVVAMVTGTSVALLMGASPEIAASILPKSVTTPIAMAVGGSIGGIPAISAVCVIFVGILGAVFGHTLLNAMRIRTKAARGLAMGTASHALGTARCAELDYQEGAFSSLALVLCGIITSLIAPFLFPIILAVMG
UniProt P0AG16: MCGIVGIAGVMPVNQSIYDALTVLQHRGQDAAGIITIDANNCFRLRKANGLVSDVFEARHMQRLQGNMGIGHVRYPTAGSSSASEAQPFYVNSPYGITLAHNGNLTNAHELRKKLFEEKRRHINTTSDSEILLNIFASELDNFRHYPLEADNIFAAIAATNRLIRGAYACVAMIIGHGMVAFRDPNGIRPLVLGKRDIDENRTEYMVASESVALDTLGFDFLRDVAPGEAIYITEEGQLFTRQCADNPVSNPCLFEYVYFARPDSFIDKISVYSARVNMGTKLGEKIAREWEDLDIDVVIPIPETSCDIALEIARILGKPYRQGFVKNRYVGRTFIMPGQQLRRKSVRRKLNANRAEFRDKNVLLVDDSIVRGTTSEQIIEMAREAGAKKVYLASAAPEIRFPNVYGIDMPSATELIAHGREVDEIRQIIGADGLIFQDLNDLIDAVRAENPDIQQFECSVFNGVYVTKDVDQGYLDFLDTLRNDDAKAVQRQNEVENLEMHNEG
UniProt P0AFU4: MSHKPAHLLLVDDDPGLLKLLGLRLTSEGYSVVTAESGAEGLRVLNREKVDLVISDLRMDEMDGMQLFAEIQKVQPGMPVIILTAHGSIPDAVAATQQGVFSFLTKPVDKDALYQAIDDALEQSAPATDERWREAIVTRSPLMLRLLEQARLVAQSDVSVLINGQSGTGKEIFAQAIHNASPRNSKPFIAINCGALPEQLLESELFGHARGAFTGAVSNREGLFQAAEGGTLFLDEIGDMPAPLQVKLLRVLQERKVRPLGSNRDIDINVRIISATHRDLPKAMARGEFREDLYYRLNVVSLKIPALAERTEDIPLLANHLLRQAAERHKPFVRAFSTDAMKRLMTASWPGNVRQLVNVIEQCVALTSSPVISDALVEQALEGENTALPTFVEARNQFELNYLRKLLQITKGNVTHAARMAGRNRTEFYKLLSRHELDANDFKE
UniProt P0ADZ7: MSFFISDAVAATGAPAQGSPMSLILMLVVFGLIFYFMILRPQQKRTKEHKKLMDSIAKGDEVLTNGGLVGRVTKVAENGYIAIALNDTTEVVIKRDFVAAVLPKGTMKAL
UniProt P0ADA3: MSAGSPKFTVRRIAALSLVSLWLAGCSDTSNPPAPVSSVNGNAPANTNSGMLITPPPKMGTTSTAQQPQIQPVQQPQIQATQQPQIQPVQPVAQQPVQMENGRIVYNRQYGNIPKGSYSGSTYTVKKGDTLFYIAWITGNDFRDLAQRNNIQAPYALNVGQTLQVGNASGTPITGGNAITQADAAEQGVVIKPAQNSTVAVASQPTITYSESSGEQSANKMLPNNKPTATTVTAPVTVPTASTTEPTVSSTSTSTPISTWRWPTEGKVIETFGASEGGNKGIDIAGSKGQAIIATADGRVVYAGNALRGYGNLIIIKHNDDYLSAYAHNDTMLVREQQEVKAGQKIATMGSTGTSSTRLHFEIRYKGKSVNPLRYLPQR
UniProt P0AEM4: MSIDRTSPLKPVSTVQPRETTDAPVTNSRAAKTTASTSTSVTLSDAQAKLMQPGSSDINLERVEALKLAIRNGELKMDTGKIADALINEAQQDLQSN
UniProt P0AD44: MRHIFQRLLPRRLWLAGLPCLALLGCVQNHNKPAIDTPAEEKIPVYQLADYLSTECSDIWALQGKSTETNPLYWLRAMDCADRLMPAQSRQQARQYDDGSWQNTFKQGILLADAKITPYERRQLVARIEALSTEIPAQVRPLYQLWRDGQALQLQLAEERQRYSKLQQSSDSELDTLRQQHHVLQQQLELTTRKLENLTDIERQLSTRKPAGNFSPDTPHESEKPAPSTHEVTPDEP
UniProt P0AFW0: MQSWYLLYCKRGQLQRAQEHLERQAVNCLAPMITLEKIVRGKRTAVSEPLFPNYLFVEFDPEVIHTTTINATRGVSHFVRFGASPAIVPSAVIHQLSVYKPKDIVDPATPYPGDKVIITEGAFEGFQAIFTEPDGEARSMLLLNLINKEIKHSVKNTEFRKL
UniProt P0AED5: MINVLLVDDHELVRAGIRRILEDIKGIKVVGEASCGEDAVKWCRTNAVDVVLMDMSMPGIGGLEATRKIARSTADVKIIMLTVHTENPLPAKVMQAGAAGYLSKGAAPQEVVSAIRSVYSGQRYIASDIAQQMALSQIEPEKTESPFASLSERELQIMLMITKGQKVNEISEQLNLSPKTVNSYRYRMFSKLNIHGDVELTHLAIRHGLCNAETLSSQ
UniProt P0AEX3: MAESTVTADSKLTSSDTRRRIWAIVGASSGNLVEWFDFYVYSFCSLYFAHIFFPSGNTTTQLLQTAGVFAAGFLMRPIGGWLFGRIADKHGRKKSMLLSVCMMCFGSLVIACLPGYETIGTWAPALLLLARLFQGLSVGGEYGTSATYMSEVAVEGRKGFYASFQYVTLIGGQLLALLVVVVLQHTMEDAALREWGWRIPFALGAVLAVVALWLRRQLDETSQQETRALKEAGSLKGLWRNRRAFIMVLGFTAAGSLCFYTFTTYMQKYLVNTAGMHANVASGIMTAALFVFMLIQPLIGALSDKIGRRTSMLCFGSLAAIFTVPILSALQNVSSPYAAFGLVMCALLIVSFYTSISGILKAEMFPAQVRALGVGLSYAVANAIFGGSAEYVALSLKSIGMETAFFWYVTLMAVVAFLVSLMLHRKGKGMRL
UniProt P0ADP0: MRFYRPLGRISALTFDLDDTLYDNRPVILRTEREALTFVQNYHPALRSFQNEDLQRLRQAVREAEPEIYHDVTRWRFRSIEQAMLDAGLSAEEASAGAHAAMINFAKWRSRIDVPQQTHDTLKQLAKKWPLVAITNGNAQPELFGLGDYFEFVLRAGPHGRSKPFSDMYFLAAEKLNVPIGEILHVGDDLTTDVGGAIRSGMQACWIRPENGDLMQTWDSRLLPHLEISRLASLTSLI
UniProt P0ADD5: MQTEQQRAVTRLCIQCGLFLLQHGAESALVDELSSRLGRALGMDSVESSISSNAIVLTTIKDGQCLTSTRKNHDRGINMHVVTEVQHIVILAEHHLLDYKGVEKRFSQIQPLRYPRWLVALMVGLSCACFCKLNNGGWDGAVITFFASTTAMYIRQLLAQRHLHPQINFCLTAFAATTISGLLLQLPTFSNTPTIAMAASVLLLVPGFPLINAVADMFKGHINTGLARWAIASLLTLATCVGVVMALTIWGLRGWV
UniProt P0ADV7: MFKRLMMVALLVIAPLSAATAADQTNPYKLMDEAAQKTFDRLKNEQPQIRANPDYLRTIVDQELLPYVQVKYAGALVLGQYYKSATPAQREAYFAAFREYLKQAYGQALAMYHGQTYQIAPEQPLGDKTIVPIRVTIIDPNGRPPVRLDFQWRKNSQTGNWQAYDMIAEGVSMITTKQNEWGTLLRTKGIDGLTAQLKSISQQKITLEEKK
UniProt P0ADX7: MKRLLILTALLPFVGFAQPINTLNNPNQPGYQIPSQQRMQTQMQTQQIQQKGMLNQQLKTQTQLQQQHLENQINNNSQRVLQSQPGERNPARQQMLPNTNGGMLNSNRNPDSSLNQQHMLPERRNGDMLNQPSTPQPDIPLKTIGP
UniProt P0AE28: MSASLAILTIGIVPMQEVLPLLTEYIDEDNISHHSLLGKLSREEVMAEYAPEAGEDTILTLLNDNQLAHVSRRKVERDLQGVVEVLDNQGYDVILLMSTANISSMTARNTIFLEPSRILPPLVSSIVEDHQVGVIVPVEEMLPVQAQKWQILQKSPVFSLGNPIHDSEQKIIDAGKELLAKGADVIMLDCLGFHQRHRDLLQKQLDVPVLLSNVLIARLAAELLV
UniProt P0AFI5: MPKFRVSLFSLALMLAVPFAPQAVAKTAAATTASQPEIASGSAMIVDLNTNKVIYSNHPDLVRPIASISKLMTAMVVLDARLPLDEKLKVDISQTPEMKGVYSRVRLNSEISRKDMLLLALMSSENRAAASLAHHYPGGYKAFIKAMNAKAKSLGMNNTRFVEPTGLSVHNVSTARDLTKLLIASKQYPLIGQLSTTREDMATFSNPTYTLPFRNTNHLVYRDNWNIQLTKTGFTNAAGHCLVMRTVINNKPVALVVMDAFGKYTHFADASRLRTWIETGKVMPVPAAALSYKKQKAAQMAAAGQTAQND
UniProt P0AD57: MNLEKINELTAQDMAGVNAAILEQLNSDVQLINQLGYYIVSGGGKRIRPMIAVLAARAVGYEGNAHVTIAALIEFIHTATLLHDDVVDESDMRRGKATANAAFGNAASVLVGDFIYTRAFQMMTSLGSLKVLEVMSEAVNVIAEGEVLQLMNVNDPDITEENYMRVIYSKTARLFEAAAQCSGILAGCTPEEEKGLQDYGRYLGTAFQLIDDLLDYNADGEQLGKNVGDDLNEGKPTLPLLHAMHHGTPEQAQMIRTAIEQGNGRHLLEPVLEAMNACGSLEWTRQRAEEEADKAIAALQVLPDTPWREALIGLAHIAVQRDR
UniProt P0AF98: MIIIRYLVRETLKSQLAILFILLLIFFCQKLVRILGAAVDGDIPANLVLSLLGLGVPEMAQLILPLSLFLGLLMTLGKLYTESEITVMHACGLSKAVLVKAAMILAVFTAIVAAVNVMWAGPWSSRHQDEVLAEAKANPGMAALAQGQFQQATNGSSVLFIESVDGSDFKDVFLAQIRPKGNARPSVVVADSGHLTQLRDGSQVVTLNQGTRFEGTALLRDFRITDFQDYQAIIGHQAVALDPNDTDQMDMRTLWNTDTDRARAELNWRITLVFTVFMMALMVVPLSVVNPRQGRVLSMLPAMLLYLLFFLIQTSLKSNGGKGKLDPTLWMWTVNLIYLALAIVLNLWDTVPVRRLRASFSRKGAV
UniProt P0AFZ1: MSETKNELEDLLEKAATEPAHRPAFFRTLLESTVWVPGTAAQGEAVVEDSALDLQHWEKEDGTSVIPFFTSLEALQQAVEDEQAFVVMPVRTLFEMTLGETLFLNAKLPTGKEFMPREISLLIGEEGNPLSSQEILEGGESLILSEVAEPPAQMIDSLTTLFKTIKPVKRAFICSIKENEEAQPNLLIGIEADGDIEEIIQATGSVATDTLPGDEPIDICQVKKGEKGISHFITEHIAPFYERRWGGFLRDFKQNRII
UniProt P0AG14: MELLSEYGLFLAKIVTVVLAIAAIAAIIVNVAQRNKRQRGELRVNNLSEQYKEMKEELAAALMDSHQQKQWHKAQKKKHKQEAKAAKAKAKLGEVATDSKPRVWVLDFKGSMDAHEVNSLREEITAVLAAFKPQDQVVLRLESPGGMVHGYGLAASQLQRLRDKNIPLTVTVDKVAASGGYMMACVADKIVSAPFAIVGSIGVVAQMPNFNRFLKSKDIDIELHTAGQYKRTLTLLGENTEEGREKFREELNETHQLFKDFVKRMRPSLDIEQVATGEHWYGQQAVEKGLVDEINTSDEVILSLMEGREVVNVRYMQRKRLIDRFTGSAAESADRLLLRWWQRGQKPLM
UniProt P0AFU6: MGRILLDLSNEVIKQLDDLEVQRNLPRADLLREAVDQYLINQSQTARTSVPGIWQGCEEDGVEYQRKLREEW

Target	log2 fold change
UniProt P0AD19 (peptide sequence: GLAMGTASHALGTAR, peptide start residue: 178)	-0.0318
UniProt P0AG16 (peptide sequence: LQGNMGIGHVR, peptide start residue: 64)	0.344
UniProt P0AFU4 (peptide sequence: NQFELNYLR, peptide start residue: 396)	-0.301
UniProt P0ADZ7 (peptide sequence: KLMDSIAK, peptide start residue: 51)	0.287
UniProt P0ADA3 (peptide sequence: GSYSGSTYTVKK, peptide start residue: 116)	0.253
UniProt P0AEM4 (peptide sequence: LMQPGSSDINLERVEALK, peptide start residue: 50)	-0.187
UniProt P0AD44 (peptide sequence: QQHHVLQQQLELTTR, peptide start residue: 179)	0.289
UniProt P0AFW0 (peptide sequence: SMLLLNLINKEIK, peptide start residue: 139)	-0.159
UniProt P0AED5 (peptide sequence: ELQIMLMITK, peptide start residue: 154)	-0.316
UniProt P0AEX3 (peptide sequence: ALKEAGSLK, peptide start residue: 228)	-0.118
UniProt P0ADP0 (peptide sequence: EAEPEIYHDVTR, peptide start residue: 63)	0.0926
UniProt P0ADD5 (peptide sequence: DGQCLTSTR, peptide start residue: 62)	0.138
UniProt P0ADV7 (peptide sequence: YAGALVLGQYYK, peptide start residue: 72)	0.582
UniProt P0ADX7 (peptide sequence: NPDSSLNQQHMLPER, peptide start residue: 109)	0.0911
UniProt P0AE28 (peptide sequence: GADVIMLDCLGFHQR, peptide start residue: 182)	-0.177
UniProt P0AFI5 (peptide sequence: TGFTNAAGHCLVMR, peptide start residue: 232)	-0.873
UniProt P0AD57 (peptide sequence: QRAEEEADK, peptide start residue: 286)	-0.459
UniProt P0AF98 (peptide sequence: PSVVVADSGHLTQLR, peptide start residue: 185)	0.382
UniProt P0AFZ1 (peptide sequence: GISHFITEHIAPFYERR, peptide start residue: 228)	-0.137
UniProt P0AG14 (peptide sequence: EKFREELNETHQLFK, peptide start residue: 245)	-0.588
UniProt P0AFU6 (peptide sequence: ILLDLSNEVIK, peptide start residue: 4)	0.17

2 entries picked at random from those above, as already listed:
Target	log2 fold change
UniProt P0AEX3 (peptide sequence: ALKEAGSLK, peptide start residue: 228)	-0.118
UniProt P0AF98 (peptide sequence: PSVVVADSGHLTQLR, peptide start residue: 185)	0.382
